# Results published in article PMC7862700.
# The list shows a part of the results. The source does not settle which construct or isoform was used.
# Biological target: T1, ETS1 (UniProt P14921)
# T1 sequence: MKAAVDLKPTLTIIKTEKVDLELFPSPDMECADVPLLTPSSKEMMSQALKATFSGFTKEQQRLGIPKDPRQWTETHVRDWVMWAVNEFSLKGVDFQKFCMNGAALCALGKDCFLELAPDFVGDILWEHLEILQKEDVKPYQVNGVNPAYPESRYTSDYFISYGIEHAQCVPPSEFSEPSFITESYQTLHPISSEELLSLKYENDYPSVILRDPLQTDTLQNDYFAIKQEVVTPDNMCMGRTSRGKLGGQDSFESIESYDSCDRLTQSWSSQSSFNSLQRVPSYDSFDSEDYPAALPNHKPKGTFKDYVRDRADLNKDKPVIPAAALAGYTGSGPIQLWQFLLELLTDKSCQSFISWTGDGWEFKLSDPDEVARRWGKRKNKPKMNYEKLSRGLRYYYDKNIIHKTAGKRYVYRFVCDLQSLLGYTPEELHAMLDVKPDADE
# Experiment: DAPPL (digital affinity profiling via proximity ligation, sequencing)
# Settings: 10 mM Tris-HCl pH 7.5, 50 mM NaCl, 1 mM DTT, 4% glycerol, room temperature, 30 min; GST-TFs on glutathione beads, 16-mer random dsDNA library, 0.1% …; high values mean tight binding; double strand, one strand shown; scale: fold enrichment (6-mer frequency, TF over GST control)
row,Sequence,binding signal
1,ACGCTA,1.08
2,CCACAC,1
3,ACTATG,1.24
4,TCAAAC,1.22
5,ACTCAC,1.17
6,CCTACC,1.32
7,TCCCCG,1.19
8,CTACCT,1.45
9,TGTGAT,1.05
10,GTATCA,1.13
11,TTAGCT,1.26
12,ATTAAG,1.1
13,CAACTT,1.62
14,TTTCAC,1.32
15,TCCCCC,1.42
16,ATCTGG,1.19
17,CCCCGA,1.03
18,TAAGAA,1.11
19,ATTAGG,1.09
20,CCGCAG,1.01

row,Sequence,binding signal
1,TTTCCC,1.7
2,CGCCTG,1.05
3,GCGCCC,1.17
4,TTATCG,1.3
5,TACGTC,1.24
6,CTCGCT,1.65
7,TGCGTT,1.1
8,CTAGCC,1.07
9,ATTTTA,1.37
10,TCCGGG,1.36
11,GAATGT,1.04
12,GTTTAT,1.15
13,TTCGTC,1.27
14,ACAAAT,1.18
15,TGTATT,1.44
16,CACCTG,0.984
17,ACTCCA,1.21
18,CTCCGT,1.21
19,ATTTCG,1.25
20,CTACAT,1.43

# An excerpt of these results, with bars between the fields.
row | Sequence | binding signal
18 | CTCCGT | 1.21
19 | ATTTCG | 1.25
20 | CTACAT | 1.43
